Test results taken from the supplement of paper PMC10849652.
The other results are listed elsewhere or left out. Residues, ends and D or L forms follow the SMILES beside them. *: point of attachment. Cbz = O=C(OCc1ccccc1)*

The chains behind the UniProt entries cited, without tags or fusion partners. Where a name states a change or a piece, a line headed by the entry shows the natural chain unless it says otherwise.
UniProt Q96S52: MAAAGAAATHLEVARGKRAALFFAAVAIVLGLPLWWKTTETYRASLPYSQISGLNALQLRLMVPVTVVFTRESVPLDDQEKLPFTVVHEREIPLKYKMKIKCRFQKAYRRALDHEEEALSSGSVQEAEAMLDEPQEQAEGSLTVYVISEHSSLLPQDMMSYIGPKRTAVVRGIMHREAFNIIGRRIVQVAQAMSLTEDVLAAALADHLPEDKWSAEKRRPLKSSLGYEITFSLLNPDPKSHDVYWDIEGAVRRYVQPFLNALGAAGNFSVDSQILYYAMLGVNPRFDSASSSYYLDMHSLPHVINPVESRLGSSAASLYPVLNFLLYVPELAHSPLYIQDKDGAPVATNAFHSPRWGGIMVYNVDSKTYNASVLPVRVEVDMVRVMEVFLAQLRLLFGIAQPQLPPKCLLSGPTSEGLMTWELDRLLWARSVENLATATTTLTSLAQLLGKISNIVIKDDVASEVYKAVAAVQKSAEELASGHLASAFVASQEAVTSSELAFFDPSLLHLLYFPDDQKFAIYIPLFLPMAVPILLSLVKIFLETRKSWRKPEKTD
UniProt P12273: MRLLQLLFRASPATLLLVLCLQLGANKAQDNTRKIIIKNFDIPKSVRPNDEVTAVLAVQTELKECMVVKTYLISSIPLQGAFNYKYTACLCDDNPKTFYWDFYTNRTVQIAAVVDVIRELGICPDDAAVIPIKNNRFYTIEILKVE
UniProt P08237: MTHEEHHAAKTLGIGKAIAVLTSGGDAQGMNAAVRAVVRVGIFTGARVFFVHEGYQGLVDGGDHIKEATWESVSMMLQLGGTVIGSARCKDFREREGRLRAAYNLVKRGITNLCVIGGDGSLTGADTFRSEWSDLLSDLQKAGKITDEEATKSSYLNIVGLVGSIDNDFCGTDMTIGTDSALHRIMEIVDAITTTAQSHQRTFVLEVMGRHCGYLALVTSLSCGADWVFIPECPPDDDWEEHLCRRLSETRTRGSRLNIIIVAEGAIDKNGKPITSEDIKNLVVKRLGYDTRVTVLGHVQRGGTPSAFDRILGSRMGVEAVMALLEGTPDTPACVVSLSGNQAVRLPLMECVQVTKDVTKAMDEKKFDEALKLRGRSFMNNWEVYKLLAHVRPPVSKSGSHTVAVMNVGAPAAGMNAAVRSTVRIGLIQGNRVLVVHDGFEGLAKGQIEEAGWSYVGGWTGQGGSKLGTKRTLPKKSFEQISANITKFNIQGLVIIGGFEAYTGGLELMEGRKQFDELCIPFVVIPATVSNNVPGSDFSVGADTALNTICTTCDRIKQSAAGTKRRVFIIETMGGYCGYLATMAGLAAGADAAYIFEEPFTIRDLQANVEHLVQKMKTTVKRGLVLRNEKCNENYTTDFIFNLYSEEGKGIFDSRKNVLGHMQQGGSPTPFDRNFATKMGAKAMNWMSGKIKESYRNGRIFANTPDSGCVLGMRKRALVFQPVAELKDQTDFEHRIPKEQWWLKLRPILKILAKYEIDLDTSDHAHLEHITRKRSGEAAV
UniProt Q92643: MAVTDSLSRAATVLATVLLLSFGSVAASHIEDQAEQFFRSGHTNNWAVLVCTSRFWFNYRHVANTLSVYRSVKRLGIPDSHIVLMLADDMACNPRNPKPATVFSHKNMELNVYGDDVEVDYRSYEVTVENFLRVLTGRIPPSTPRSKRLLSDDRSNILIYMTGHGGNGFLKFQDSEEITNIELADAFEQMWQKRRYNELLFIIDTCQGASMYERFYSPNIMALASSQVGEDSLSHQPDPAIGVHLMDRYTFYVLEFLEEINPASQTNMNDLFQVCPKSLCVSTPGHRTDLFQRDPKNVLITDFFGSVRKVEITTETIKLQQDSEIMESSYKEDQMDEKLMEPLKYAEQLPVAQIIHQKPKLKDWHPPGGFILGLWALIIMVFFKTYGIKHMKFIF
UniProt Q99471, whole entry, looked up: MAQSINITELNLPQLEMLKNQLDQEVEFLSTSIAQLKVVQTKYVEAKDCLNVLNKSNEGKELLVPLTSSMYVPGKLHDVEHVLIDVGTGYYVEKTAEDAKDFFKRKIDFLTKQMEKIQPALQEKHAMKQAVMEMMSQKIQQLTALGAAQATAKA
UniProt Q9NQP4, whole entry, looked up: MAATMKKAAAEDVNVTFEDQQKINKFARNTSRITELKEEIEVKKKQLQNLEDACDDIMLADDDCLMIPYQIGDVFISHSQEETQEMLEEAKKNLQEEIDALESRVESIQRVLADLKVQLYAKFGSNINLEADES
UniProt O00459, whole entry, looked up: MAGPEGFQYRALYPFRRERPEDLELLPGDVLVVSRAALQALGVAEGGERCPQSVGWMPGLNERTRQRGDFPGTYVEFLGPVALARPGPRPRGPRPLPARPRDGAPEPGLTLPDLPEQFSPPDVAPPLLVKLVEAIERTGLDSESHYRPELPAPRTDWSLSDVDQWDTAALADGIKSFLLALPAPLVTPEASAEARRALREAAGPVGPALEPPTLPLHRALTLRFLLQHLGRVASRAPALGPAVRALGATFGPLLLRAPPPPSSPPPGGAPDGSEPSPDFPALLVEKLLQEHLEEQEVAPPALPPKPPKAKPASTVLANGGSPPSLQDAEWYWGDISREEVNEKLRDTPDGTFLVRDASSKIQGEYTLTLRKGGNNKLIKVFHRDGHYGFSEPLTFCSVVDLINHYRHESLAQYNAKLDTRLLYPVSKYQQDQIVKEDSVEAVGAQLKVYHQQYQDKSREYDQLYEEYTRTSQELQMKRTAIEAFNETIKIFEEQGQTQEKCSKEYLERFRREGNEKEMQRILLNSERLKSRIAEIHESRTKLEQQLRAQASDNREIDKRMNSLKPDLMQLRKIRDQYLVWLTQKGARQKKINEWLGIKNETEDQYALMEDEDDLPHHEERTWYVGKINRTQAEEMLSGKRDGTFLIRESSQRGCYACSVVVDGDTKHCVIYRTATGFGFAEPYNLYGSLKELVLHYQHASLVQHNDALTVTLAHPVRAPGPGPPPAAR
UniProt Q6PCE3: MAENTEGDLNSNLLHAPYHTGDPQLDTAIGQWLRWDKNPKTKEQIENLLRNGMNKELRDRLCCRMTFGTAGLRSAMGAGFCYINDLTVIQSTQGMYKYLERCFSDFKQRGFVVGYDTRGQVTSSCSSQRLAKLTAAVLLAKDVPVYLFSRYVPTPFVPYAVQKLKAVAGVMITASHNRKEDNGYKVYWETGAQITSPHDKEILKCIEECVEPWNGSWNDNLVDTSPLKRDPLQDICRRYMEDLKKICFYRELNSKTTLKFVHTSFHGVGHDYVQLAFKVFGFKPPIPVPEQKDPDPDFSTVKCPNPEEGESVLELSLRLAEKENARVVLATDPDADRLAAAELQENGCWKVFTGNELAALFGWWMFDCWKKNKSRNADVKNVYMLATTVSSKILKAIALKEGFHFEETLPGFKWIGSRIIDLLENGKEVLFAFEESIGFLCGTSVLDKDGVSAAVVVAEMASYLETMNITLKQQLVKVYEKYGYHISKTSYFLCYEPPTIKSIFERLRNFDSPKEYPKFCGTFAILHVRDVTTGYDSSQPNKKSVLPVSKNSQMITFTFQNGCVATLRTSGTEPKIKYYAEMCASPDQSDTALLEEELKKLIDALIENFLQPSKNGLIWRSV
UniProt Q96HS1, whole entry, looked up: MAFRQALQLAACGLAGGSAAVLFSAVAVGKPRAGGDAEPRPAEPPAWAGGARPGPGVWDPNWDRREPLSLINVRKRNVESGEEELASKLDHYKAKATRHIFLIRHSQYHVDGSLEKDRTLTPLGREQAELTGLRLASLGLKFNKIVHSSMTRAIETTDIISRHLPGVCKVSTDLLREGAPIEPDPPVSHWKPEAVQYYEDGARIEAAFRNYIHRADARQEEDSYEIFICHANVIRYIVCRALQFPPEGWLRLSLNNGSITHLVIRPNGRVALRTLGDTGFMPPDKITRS
UniProt Q01813: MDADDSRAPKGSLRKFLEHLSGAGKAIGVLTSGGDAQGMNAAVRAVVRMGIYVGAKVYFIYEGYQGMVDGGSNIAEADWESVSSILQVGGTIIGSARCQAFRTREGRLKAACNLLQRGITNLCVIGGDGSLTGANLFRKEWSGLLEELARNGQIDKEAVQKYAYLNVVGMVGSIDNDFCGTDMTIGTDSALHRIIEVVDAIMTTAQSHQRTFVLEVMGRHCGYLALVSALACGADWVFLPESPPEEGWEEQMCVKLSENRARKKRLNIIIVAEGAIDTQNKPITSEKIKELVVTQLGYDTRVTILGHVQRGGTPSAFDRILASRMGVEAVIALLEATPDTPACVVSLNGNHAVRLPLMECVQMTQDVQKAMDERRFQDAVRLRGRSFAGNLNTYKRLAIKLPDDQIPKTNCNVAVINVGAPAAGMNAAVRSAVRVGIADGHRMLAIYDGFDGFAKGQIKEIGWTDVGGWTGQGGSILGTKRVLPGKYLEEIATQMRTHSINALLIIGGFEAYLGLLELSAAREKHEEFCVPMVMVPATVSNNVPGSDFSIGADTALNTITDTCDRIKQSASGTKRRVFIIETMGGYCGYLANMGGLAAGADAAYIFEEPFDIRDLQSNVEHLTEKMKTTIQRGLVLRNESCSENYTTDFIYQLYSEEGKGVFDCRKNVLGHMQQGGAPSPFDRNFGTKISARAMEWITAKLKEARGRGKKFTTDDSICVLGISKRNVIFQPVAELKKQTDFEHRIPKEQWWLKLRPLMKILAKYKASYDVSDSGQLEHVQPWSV
UniProt Q13492: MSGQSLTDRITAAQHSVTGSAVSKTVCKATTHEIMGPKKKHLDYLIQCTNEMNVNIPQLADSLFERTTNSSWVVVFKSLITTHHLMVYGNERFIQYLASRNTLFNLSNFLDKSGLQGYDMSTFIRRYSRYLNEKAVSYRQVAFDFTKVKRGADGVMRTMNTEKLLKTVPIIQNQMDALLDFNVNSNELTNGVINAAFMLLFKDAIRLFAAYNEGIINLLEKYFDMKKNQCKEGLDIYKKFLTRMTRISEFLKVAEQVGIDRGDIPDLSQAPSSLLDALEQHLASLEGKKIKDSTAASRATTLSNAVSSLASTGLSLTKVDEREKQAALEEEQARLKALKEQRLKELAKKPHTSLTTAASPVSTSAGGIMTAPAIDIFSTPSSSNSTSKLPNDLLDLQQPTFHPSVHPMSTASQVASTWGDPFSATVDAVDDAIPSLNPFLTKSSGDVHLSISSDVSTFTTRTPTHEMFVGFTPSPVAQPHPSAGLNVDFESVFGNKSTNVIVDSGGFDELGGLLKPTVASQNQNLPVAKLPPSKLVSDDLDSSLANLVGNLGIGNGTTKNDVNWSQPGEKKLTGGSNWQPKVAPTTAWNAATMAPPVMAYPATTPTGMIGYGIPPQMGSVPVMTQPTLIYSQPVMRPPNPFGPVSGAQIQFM
UniProt Q9NRX4: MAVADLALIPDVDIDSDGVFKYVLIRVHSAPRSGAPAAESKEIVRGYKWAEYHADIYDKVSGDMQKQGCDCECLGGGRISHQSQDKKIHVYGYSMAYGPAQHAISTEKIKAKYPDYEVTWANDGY
UniProt O43175: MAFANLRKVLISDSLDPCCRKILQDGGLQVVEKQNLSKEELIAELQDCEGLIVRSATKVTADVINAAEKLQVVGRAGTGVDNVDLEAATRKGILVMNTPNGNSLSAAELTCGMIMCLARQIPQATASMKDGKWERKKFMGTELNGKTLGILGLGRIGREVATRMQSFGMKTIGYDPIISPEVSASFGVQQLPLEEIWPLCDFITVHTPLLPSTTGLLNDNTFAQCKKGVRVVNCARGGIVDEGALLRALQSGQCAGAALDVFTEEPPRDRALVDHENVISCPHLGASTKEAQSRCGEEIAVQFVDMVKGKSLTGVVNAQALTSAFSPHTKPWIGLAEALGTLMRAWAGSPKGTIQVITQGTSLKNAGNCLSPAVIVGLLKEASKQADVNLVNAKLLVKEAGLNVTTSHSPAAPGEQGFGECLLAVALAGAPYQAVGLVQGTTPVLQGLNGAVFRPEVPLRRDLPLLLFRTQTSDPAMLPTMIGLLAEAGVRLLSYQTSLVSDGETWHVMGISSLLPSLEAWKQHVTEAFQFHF
UniProt P18669: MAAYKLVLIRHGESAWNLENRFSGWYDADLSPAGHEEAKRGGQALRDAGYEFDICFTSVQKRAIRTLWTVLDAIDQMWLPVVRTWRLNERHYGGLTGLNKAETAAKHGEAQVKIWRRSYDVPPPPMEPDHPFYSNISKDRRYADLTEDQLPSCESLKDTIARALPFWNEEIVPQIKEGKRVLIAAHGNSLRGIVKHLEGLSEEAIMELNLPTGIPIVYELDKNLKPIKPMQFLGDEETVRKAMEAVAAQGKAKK
UniProt O15212, whole entry, looked up: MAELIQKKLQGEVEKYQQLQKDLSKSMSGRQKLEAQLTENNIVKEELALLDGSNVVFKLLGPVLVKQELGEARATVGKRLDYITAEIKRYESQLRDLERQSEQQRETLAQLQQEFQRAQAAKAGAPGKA

Columns and labels:
Assay in all cases: log2 fold change, soluble protein after heating vs DMSO (PISA); higher = thermal stabilisation; K562 cells, 10 uM, 30 min; active = over 0.2 and 3.5 SD of the protein, either way, in both replicates (recomputed)
erlotinib = compound: C#Cc1cccc(Nc2ncnc3cc(OCCOC)c(OCCOC)cc23)c1 [erlotinib]
Outline: (§1)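 Soluble protein was defined as the supernatant after 21,000xg for 90 min. It came from K562 cells at 2×10^6 cells/mL given 10 μM compound for 30 min, heated in aliquots for 3 min across 48°C-58°C, pooled, and extracted in PBS with 0.5% NP-40 at 4°C, and was quantified by TMTpro 16plex LC-MS/MS with equalised channel sums. Thermal stability against control samples, from duplicates, is reported as log2 fold change.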

[1] = compound: C/C(=N\NC(=O)C1=CC(=CC=C1)S(=O)(=O)N2CCOCC2)/C3=C(C=CC(=C3)Cl)O
Outline: as §1

[2] = compound: C1=CC(=C(C=C1Cl)C2=NC3=NC=CN=C3C(=N2)NC4=CC=NC=C4)F
Outline: as §1

[3] = compound: C1=CC(=CC=C1C2=NC3=C(N2)C=C(C=C3)C(=O)N)OC4=CC=C(C=C4)Cl
Outline: as §1

[4] = compound: C1=CC2=C(C=CC(=C2)/C=C\3/C(=O)NC(=NCC4=CC=CS4)S3)N=C1
Outline: as §1

[5] = compound: C1=CC2=NC=CN=C2C=C1/C=C/3\C(=O)NC(=O)S3
Outline: as §1

[6] = compound: C1=CC=C(C=C1)C2=NC(=C(N2)C3=CC=NC=C3)C4=CC(=C(C=C4)Cl)O
Outline: as §1

[7] = compound: C1=CC=C2C(=C1)C3=NNC4=CC=CC(=C43)C2=O
Outline: as §1

[8] = compound: C1CCN(C1)C(=O)NC2=CC=CC(=C2)NC3=NC=C(C(=N3)NCCC4=CN=CN4)Br
Outline: as §1

[9] = compound: C1CN(CCC1(CC2=CC=C(C=C2)Cl)N)C3=NC=NC4=C3C=CN4
Outline: as §1

IRAK-1-4 Inhibitor I = compound: C1COCCN1CCN2C3=CC=CC=C3N=C2NC(=O)C4=CC(=CC=C4)[N+](=O)[O-] [IRAK-1-4 Inhibitor I]
Outline: as §1

ibrutinib = compound: C=CC(=O)N1CCC[C@@H](n2nc(-c3ccc(Oc4ccccc4)cc3)c3c(N)ncnc32)C1 [ibrutinib]
Outline: as §1

[10] = compound: CC(=O)c1cnc2ccc(-c3cc(Cl)c(O)c(Cl)c3)nc2c1N[C@H]1CC[C@H](CN(C)C)CC1
Outline: as §1

ralimetinib = compound: CC(C)(C)Cn1c(N)nc2ccc(-c3[nH]c(C(C)(C)C)nc3-c3ccc(F)cc3)nc21 [ralimetinib]
Outline: as §1

[11] = compound: CC(C)(O)CC(=O)NCCn1ccc2ncnc(Nc3ccc(Oc4cccc(C(F)(F)F)c4)c(Cl)c3)c21
Outline: as §1

[12] = compound: CC(C)C1=C2N=C(C=C(N2N=C1)NCC3=CC=CC=C3)NCCCCCCN
Outline: as §1

[13] = compound: CC(C)C[C@@H](C=O)NC(=O)[C@H](CC(C)C)NC(=O)[C@H](CC(C)C)NC(=O)OCc1ccccc1
Outline: as §1

pinometostat = compound: CC(C)N(C[C@H]1O[C@@H](n2cnc3c(N)ncnc32)[C@H](O)[C@@H]1O)[C@H]1C[C@@H](CCc2nc3cc(C(C)(C)C)ccc3[nH]2)C1 [pinometostat]
Outline: as §1

[14] = compound: CC1=C(C(CC(=O)N1)C2=CC=C(C=C2)C(F)(F)F)C(=O)NC3=C(C=C4C(=C3)C=NN4)F
Outline: as §1

[15] = compound: CC1=C(C2=C(C=C1)C(=O)C3=CC=CC=C3N2CCCN)C
Outline: as §1

Measured: log2 fold change

PIGS (UniProt Q96S52)
inactive: erlotinib -0.032 | [1] 0.03 | [2] -0.02 | [3] -0.015 | [4] 0.028 | [5] 0.034 | [6] 0.021 | [7] -0.03 | [8] -0.035 | [9] 0.009 | IRAK-1-4 Inhibitor I -0.028 | ibrutinib -0.026 | [10] 0.013 | ralimetinib 0.024 | [11] 0.033 | [12] -0.013 | [13] -0.02 | pinometostat 0.065 | [14] -0.01 | [15] 0.044

PIP (UniProt P12273)
inactive: erlotinib 0.179 | [1] -0.109 | [2] -0.26 | [3] -0.374 | [4] 0.139 | [5] -0.351 | [6] 0.224 | [7] -0.733 | [8] -0.325 | [9] -0.513 | IRAK-1-4 Inhibitor I 0.015 | ibrutinib -0.037 | [10] -0.166 | ralimetinib -0.186 | [11] -0.02 | [12] -0.027 | [13] -0.315 | pinometostat -0.143 | [14] -0.457 | [15] 0.725

PFKM isoform 3 (UniProt P08237)
inactive: erlotinib -0.03 | [1] 0.011 | [2] 0.033 | [3] 0.017 | [4] 0.042 | [5] 0.007 | [6] 0.012 | [7] -0.019 | [8] 0.012 | [9] 0.073 | IRAK-1-4 Inhibitor I 0.025 | ibrutinib 0.021 | [10] -0.005 | ralimetinib -0.043 | [11] -0.01 | [12] 0.058 | [13] -0.016 | pinometostat -0.017 | [14] 0.023 | [15] 0.01

PIGK (UniProt Q92643)
inactive: erlotinib 0.046 | [1] -0.063 | [2] -0.019 | [3] -0.013 | [4] 0.019 | [5] 0.034 | [6] -0.01 | [7] -0.033 | [8] -0.045 | [9] 0.034 | IRAK-1-4 Inhibitor I -0.087 | ibrutinib 0.01 | [10] 0 | ralimetinib 0.021 | [11] -0.027 | [12] -0.061 | [13] 0.01 | pinometostat -0.011 | [14] -0.015 | [15] 0.002

PFDN5 (UniProt Q99471)
inactive: erlotinib -0.094 | [1] 0.008 | [2] 0.189 | [3] 0.014 | [4] 0.04 | [5] 0.052 | [6] 0.115 | [7] 0.029 | [8] -0.076 | [9] -0.043 | IRAK-1-4 Inhibitor I -0.112 | ibrutinib 0.004 | [10] -0.015 | ralimetinib -0.077 | [11] -0.042 | [12] 0.075 | [13] -0.233 | pinometostat -0.196 | [14] 0.024 | [15] 0.159

PFDN4 (UniProt Q9NQP4)
inactive: erlotinib -0.011 | [1] -0.093 | [2] 0.035 | [3] 0.019 | [4] -0.004 | [5] 0.015 | [6] 0.071 | [7] 0.089 | [8] 0.133 | [9] 0.082 | IRAK-1-4 Inhibitor I 0.086 | ibrutinib -0.024 | [10] -0.067 | ralimetinib 0.19 | [11] 0.027 | [12] 0.067 | [13] 0.138 | pinometostat -0.049 | [14] 0.064 | [15] 0.006

PIK3R2 (UniProt O00459)
inactive: erlotinib 0.085 | [1] 0.087 | [2] -0.134 | [3] -0.033 | [4] 0.004 | [5] -0.09 | [6] 0.013 | [7] 0.09 | [8] 0.014 | [9] -0.027 | IRAK-1-4 Inhibitor I 0.008 | ibrutinib -0.019 | [10] -0.016 | ralimetinib -0.067 | [11] 0.079 | [12] -0.133 | [13] 0.108 | pinometostat 0.038 | [14] 0.197 | [15] 0.084

PGM2L1 (UniProt Q6PCE3)
inactive: erlotinib 0.043 | [1] 0 | [2] 0.031 | [3] 0.07 | [4] 0.004 | [5] -0.023 | [6] 0 | [7] -0.025 | [8] 0.024 | [9] 0.025 | IRAK-1-4 Inhibitor I 0.069 | ibrutinib 0.041 | [10] 0.004 | ralimetinib -0.024 | [11] 0 | [12] -0.042 | [13] -0.015 | pinometostat -0.022 | [14] 0.057 | [15] 0

PGAM5 (UniProt Q96HS1)
inactive: erlotinib 0.009 | [1] -0.041 | [2] -0.098 | [3] -0.025 | [4] -0.018 | [5] 0.012 | [6] -0.071 | [7] 0.198 | [8] 0.032 | [9] -0.077 | IRAK-1-4 Inhibitor I -0.089 | ibrutinib 0.038 | [10] 0.158 | ralimetinib 0.119 | [11] 0.071 | [12] 0.058 | [13] 0.125 | pinometostat 0.239 | [14] 0.024 | [15] 0.116

PFKP (UniProt Q01813)
inactive: erlotinib 0.006 | [1] 0.012 | [2] 0.008 | [3] 0.005 | [4] 0.001 | [5] -0.021 | [6] -0.035 | [7] -0.008 | [8] -0.04 | [9] 0.013 | IRAK-1-4 Inhibitor I 0.06 | ibrutinib 0.019 | [10] -0.014 | ralimetinib -0.028 | [11] 0.023 | [12] 0.05 | [13] -0.006 | pinometostat -0.017 | [14] 0.032 | [15] 0.055

PICALM (UniProt Q13492)
inactive: erlotinib 0.03 | [1] 0.012 | [2] 0.028 | [3] -0.02 | [4] 0.019 | [5] 0.01 | [6] 0.03 | [7] -0.018 | [8] 0.014 | [9] 0.041 | IRAK-1-4 Inhibitor I 0.067 | ibrutinib 0.002 | [10] -0.039 | ralimetinib -0.008 | [11] 0 | [12] 0.016 | [13] -0.007 | pinometostat -0.003 | [14] -0.016 | [15] 0.044

PHPT1 (UniProt Q9NRX4)
inactive: erlotinib 0.033 | [1] 0.026 | [2] 0.061 | [3] 0.032 | [4] 0.031 | [5] 0.018 | [6] -0.02 | [7] -0.014 | [8] -0.004 | [9] -0.053 | IRAK-1-4 Inhibitor I 0.042 | ibrutinib -0.021 | [10] -0.004 | ralimetinib -0.112 | [11] 0.011 | [12] 0.021 | [13] 0.047 | pinometostat -0.008 | [14] -0.017 | [15] 0.029

PHGDH (UniProt O43175)
inactive: erlotinib -0.014 | [1] 0.042 | [2] 0.079 | [3] 0.004 | [4] -0.04 | [5] -0.064 | [6] -0.003 | [7] 0.024 | [8] -0.003 | [9] 0.032 | IRAK-1-4 Inhibitor I 0.051 | ibrutinib 0.016 | [10] 0.015 | ralimetinib -0.04 | [11] -0.019 | [12] 0.044 | [13] 0.004 | pinometostat -0.045 | [14] -0.014 | [15] 0.005

PGAM1 (UniProt P18669)
inactive: erlotinib -0.03 | [1] 0.003 | [2] 0.069 | [3] -0.003 | [4] -0.044 | [5] -0.009 | [6] -0.051 | [7] 0.03 | [8] -0.013 | [9] 0.053 | IRAK-1-4 Inhibitor I 0.047 | ibrutinib 0.029 | [10] 0.003 | ralimetinib 0.005 | [11] 0.009 | [12] 0.037 | [13] 0.117 | pinometostat -0.003 | [14] 0.071 | [15] -0.002

PFDN6 (UniProt O15212)
inactive: erlotinib 0.006 | [1] -0.022 | [2] 0.068 | [3] 0.001 | [4] 0.049 | [5] 0.026 | [6] -0.062 | [7] 0.008 | [8] -0.049 | [9] -0.029 | IRAK-1-4 Inhibitor I 0.004 | ibrutinib 0.026 | [10] 0.016 | ralimetinib -0.099 | [11] -0.047 | [12] 0.065 | [13] 0.028 | pinometostat -0.112 | [14] 0.001 | [15] 0.044

PI4KA (UniProt P42356)
inactive: erlotinib 0.021 | [1] 0.056 | [2] -0.146 | [3] -0.017 | [4] 0.012 | [5] 0.119 | [6] 0.022 | [7] -0.012 | [8] -0.047 | [9] -0.192 | IRAK-1-4 Inhibitor I -0.032 | ibrutinib -0.004 | [10] 0.004 | ralimetinib 0.157 | [11] 0 | [12] -0.066 | [13] 0.101 | pinometostat 0.134 | [14] 0.002 | [15] -0.009
